Assay results as given in article PMC9936496, “Azobenzene-Based Amino Acids for the Photocontrol of Coiled-Coil Peptides” (Bioconjugate Chemistry, 2023).
Values joined by “and” are separate entries in the source; they are usually repeats but may differ in a detail not shown here. Equal values may be shown once. Starred links: 1 amine or outer side, 2 acyl side, 3 side chain; linkers in the order of their positions; H or OH if unused. Non-standard residues stand in square brackets, D forms with d. Residues, ends and D or L forms follow the SMILES beside them. X1 = O=C([C@@H](N[*:1])c1ccc(N=Nc2ccccc2)cc1)[*:2]

Test system: E3GY
Assay: CD thermal unfolding curves fitted to a dimeric coiled-coil binding model
Conditions: coiled coil with E3GY; for ΔH° (enthalpy where ΔG = 0 and Ku = Kf = 1): CD θ222nm melting 5-90 °C, four concentrations, Fitdis fit
Method: CD melting curves measured at different concentrations were fitted to a coiled-coil binding model (Figures S2 and S3).[39]
CD spectra were recorded on a Jasco J-815 CD spectrometer fitted with a Peltier temperature controller. Spectra were recorded in a 2 mm quartz cuvette at 20 °C using either PBS or low-salt buffer (2 mM NaCl, 10 mM phosphate) at pH 7.4. Spectra were recorded between 190 and 280 nm with 1 nm intervals at a scan rate of 100 nm/min with five subsequent spectra averaged to minimize noise. […] Thermal melting curves were generated by recording θ222nm between 5 and 90 °C at a speed of 1 °C/min. If irradiated samples were used, samples were reilluminated every 30 min. Melting curves were measured at four different concentrations and fitted using the Fitdis software package.[39]

[1] = 340 nm irradiated state (predominantly cis)
[2] = dark state (predominantly trans)

CC[C@H](C)[C@H](NC(=O)[C@H](CCCCN)NC(C)=O)C(=O)N[C@@H](C)C(=O)N[C@@H](C)C(=O)N[C@@H](CC(C)C)C(=O)N[C@@H](CCCCN)C(=O)N[C@@H](CCC(=O)O)C(=O)N[C@@H](CCCCN)C(=O)N[C@H](C(=O)N[C@@H](C)C(=O)N[C@@H](C)C(=O)N[C@@H](CC(C)C)C(=O)N[C@@H](CCCCN)C(=O)N[C@@H](CCC(=O)O)C(=O)N[C@@H](CCCCN)C(=O)N[C@H](C(=O)N[C@@H](C)C(=O)N[C@@H](C)C(=O)N[C@@H](CC(C)C)C(=O)N[C@@H](CCCCN)C(=O)N[C@@H](CCC(=O)O)C(N)=O)[C@@H](C)CC)c1ccc(N=Nc2ccccc2)cc1 [K3-APgly] (Ac-KIAALKEK[X1]AALKEKIAALKE-NH2)
T° (temperature where ΔG = 0 and Ku = Kf = 1) [1]: 110.5 ± 1.9 °C and 110.5 °C
ΔCp (change in heat capacity upon unfolding) [1]: 2.15 ± 0.14 kJ mol^–1k^–1 and 2.15 kJ mol^–1k^–1
ΔH° (enthalpy where ΔG = 0 and Ku = Kf = 1) [1]: 236 ± 7.1 kJ mol^–1 and 236 kJ mol^–1
T° (temperature where ΔG = 0 and Ku = Kf = 1) [2]: 113 ± 1.2 °C and 113.0 °C
ΔCp (change in heat capacity upon unfolding) [2]: 2.8 ± 0.13 kJ mol^–1k^–1 and 2.80 kJ mol^–1k^–1
ΔH° (enthalpy where ΔG = 0 and Ku = Kf = 1) [2]: 285.2 ± 6.5 kJ mol^–1 and 285.2 kJ mol^–1
